# Measured values as given in the supplement of paper PMC6411743.
# ± gives the standard deviation of the averaged measurements. Only a part is listed here, and it is no random draw.
# What was measured:
# Test in all cases: NP40-soluble protein abundance relative to vehicle (solubility fold change) (ratio); higher = more soluble protein in presence of ATP
# RP9 = molecular target: T1, RP9 (UniProt Q8TA86)
# T1 sequence (whole entry): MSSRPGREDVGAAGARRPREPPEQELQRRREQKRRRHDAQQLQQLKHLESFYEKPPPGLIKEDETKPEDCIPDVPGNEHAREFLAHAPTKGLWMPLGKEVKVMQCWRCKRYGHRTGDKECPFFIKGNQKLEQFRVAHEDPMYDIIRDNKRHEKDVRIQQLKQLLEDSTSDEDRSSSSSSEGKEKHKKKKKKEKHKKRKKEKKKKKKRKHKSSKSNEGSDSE
# Procedure, shortened: (§1)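 In three independent experiments, Jurkat crude lysate made by Dounce homogenisation was treated for 10 min at room temperature and then 3 min at 37 °C with eight concentrations ranging from 0.1 to 10 mM. It was then solubilised with 0.8% NP40 plus benzonase for 60 min at 4 °C and ultracentrifuged. The supernatant was TMT-labelled for LC-MS/MS, and each value is the fold change against the detergent-processed vehicle for the same replicate, using vsn-normalised intensities.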
# TTC9C = molecular target: T2, TTC9C (UniProt Q8N5M4)
# T2 sequence (whole entry): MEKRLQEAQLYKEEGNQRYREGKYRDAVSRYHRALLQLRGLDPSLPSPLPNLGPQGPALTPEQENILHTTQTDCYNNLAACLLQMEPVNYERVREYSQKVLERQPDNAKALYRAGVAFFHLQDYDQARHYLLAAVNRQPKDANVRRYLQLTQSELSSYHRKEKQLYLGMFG
# Procedure, shortened: as §1
# USP38 = molecular target: T3, USP38 (UniProt Q8NB14)
# T3 sequence (whole entry): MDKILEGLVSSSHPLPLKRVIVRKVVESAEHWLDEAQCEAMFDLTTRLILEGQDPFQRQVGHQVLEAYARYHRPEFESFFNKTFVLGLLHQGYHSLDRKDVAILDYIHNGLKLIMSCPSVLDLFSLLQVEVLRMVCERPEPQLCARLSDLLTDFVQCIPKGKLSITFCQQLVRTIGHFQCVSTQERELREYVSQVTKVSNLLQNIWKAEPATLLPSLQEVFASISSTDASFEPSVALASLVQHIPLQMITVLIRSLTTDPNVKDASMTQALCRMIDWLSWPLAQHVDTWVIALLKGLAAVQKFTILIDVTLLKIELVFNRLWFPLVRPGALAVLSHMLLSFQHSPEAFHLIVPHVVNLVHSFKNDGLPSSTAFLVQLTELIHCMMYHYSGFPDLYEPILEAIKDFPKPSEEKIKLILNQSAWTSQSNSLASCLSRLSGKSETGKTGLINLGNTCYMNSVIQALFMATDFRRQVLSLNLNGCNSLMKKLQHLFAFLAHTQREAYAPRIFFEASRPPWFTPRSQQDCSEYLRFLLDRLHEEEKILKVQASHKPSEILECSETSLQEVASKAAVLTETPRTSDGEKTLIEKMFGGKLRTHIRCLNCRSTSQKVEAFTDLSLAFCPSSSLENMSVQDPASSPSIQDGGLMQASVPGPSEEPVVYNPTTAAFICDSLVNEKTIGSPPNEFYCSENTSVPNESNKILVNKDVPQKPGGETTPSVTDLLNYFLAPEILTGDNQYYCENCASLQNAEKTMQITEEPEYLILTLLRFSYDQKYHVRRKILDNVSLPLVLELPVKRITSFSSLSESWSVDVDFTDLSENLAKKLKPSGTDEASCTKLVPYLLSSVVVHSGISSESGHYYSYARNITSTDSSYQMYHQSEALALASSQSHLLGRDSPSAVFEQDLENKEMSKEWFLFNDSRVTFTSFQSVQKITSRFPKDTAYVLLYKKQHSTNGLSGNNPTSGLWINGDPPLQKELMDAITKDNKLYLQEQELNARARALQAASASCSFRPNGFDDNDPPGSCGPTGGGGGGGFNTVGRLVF
# Procedure, shortened: as §1
# [1] = molecular target: T4, UniProt Q8IY57 and related entries
# T4 sequence (whole entry): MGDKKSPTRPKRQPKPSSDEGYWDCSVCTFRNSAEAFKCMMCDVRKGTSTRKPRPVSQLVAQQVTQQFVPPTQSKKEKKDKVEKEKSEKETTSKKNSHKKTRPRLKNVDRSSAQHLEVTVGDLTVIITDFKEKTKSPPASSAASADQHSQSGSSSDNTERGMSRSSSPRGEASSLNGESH
# Procedure, shortened: as §1
# [2] = molecular target: T5, UniProt Q8IYB5-2|Q8IYB5-3|Q8IYB5
# T5 sequence (whole entry): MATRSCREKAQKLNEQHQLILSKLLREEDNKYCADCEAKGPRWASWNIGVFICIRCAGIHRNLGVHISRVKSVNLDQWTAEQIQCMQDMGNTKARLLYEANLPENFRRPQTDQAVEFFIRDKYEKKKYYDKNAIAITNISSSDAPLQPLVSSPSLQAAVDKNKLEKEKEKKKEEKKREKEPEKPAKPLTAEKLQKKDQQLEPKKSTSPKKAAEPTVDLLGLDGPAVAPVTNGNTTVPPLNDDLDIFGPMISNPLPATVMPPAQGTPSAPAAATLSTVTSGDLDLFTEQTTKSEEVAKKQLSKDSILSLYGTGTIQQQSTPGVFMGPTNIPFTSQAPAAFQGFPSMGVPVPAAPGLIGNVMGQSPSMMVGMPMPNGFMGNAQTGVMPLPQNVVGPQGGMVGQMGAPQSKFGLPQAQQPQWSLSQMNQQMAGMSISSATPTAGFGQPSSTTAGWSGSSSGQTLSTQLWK
# Procedure, shortened: as §1
# [3] = molecular target: T6, UniProt Q8N0Y2 and related entries
# T6 sequence (whole entry): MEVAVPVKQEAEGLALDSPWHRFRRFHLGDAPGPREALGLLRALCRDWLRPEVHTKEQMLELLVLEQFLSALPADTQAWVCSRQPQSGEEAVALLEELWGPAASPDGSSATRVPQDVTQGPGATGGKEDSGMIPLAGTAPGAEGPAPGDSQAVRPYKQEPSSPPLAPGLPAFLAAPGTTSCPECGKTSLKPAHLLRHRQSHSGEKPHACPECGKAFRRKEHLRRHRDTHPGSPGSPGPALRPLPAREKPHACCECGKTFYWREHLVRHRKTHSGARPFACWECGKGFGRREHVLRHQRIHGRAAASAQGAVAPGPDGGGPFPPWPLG
# Procedure, shortened: as §1
structure (smiles),measurement,setting,value
Nc1ncnc2c1ncn2[C@@H]1O[C@H](COP(=O)(O)OP(=O)(O)OP(=O)(O)O)[C@@H](O)[C@H]1O [adenosine triphosphate],NP40-soluble protein abundance,RP9; concentration: 2mM,1.01 ± 0.12
same,NP40-soluble protein abundance,RP9; concentration: 4mM,1.02 ± 0.076
same,NP40-soluble protein abundance,RP9; concentration: 6mM,1.03 ± 0.096
same,NP40-soluble protein abundance,RP9; concentration: 8mM,0.881 ± 0.1
same,NP40-soluble protein abundance,RP9; concentration: 10mM,0.922 ± 0.17
same,NP40-soluble protein abundance,TTC9C; concentration: 1mM,0.917 ± 0.032
same,NP40-soluble protein abundance,TTC9C; concentration: 2mM,0.913 ± 0.02
same,NP40-soluble protein abundance,TTC9C; concentration: 4mM,0.8926 ± 0.0082
same,NP40-soluble protein abundance,TTC9C; concentration: 6mM,0.939 ± 0.044
same,NP40-soluble protein abundance,TTC9C; concentration: 8mM,0.893 ± 0.06
same,NP40-soluble protein abundance,TTC9C; concentration: 10mM,0.865 ± 0.031
same,NP40-soluble protein abundance,USP38; concentration: 1mM,1.08 ± 0.074
same,NP40-soluble protein abundance,USP38; concentration: 2mM,1.07 ± 0.061
same,NP40-soluble protein abundance,USP38; concentration: 4mM,1.01 ± 0.16
same,NP40-soluble protein abundance,USP38; concentration: 6mM,0.971 ± 0.16
same,NP40-soluble protein abundance,USP38; concentration: 8mM,1.05 ± 0.059
same,NP40-soluble protein abundance,USP38; concentration: 10mM,1.06 ± 0.071
same,NP40-soluble protein abundance,[1]; concentration: 1mM,0.929 ± 0.072
same,NP40-soluble protein abundance,[1]; concentration: 2mM,0.992 ± 0.019
same,NP40-soluble protein abundance,[1]; concentration: 4mM,1.02 ± 0.19
same,NP40-soluble protein abundance,[1]; concentration: 6mM,0.892 ± 0.13
same,NP40-soluble protein abundance,[1]; concentration: 8mM,1.08 ± 0.23
same,NP40-soluble protein abundance,[1]; concentration: 10mM,1.05 ± 0.056
same,NP40-soluble protein abundance,[2]; concentration: 1mM,0.986 ± 0.026
same,NP40-soluble protein abundance,[2]; concentration: 2mM,1.03 ± 0.045
same,NP40-soluble protein abundance,[2]; concentration: 4mM,0.985 ± 0.065
same,NP40-soluble protein abundance,[2]; concentration: 6mM,1.03 ± 0.072
same,NP40-soluble protein abundance,[2]; concentration: 8mM,0.96 ± 0.11
same,NP40-soluble protein abundance,[2]; concentration: 10mM,0.984 ± 0.033
same,NP40-soluble protein abundance,[3]; concentration: 1mM,1.1 ± 0.031
same,NP40-soluble protein abundance,[3]; concentration: 2mM,1.09 ± 0.059
same,NP40-soluble protein abundance,[3]; concentration: 4mM,1.02 ± 0.095

# Two entries picked at random from those above, as already listed:
structure (smiles),measurement,setting,value
Nc1ncnc2c1ncn2[C@@H]1O[C@H](COP(=O)(O)OP(=O)(O)OP(=O)(O)O)[C@@H](O)[C@H]1O [adenosine triphosphate],NP40-soluble protein abundance,TTC9C; concentration: 8mM,0.893 ± 0.06
same,NP40-soluble protein abundance,[2]; concentration: 4mM,0.985 ± 0.065
